These are yes or no findings as the source states them, for the method shown. In cells and extracts the contact can be indirect. Some binding calls cover weakened binding; strength is not graded here.
biological target: LgBiT-tagged human M2 muscarinic acetylcholine receptor (human) (UniProt P08172); assay: split reporter; NanoBiT complementation in live HEK293 arrestin-2/3 KO cells: SmBiT-arrestin-3 and receptor-LgBiT co-expressed; luminescence read 20 min with nanoGlo substrate, then agonist added (10 µM isoproterenol for β2AR, 10 µM carbachol for M2R) and read 40 min; signal normalized to the basal signal without agonist

Amino acid sequences for entries named in this document (tags omitted). A change or cut given only in a name is not applied to a line headed by its entry. Chains listed by the source or under a name are the forms on record and can include a tag or linker.
UniProt P08172: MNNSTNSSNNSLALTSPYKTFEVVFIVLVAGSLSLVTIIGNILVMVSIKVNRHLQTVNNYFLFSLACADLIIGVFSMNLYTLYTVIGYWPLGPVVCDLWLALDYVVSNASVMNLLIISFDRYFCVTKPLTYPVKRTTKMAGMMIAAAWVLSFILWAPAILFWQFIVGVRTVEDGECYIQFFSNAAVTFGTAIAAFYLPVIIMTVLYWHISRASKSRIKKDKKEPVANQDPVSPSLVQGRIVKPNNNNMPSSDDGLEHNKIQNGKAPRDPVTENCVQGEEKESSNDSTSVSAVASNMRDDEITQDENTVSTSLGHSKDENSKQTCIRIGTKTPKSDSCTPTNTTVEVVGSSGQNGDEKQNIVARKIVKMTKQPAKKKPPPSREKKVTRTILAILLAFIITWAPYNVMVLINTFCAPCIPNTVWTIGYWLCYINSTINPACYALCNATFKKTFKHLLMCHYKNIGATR
SmBiT-tagged arrestin-3 Tr393 + K295A (P32120-2, form named): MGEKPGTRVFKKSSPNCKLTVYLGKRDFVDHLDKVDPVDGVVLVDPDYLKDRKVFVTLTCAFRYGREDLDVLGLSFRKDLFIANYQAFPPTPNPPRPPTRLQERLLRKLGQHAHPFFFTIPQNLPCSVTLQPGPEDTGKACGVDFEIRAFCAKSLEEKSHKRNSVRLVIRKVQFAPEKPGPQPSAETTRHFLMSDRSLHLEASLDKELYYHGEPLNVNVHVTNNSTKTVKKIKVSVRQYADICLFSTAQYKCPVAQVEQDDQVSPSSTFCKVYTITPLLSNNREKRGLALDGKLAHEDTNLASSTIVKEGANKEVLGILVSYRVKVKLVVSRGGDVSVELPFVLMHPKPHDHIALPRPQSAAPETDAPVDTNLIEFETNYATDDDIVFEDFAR
SmBiT-tagged arrestin-3 Tr393 + K295E (P32120-2, form named): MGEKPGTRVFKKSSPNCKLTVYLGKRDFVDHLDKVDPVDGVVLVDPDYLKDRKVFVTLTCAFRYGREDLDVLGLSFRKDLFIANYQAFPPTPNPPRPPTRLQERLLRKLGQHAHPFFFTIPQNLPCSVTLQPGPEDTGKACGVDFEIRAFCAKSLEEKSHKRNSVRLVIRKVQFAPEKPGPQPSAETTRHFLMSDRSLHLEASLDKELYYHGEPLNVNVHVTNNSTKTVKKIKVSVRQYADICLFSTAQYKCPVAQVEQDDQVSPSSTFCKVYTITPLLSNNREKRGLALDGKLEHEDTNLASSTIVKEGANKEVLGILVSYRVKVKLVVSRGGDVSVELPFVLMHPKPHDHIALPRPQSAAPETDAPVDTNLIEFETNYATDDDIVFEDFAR
SmBiT-tagged arrestin-3 truncation mutant Tr389 (P32120-2, form named): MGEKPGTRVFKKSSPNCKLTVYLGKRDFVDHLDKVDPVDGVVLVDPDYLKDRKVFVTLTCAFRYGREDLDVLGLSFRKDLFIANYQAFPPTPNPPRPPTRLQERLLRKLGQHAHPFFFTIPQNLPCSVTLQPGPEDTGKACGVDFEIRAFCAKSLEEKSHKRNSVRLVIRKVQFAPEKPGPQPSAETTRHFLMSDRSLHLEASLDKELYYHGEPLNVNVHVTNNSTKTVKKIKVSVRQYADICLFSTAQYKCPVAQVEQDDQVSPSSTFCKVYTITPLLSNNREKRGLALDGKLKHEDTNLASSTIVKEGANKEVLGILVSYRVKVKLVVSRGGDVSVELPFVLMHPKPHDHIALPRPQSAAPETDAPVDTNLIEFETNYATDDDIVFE
SmBiT-tagged arrestin-3 truncation mutant Tr400 (P32120-2, form named): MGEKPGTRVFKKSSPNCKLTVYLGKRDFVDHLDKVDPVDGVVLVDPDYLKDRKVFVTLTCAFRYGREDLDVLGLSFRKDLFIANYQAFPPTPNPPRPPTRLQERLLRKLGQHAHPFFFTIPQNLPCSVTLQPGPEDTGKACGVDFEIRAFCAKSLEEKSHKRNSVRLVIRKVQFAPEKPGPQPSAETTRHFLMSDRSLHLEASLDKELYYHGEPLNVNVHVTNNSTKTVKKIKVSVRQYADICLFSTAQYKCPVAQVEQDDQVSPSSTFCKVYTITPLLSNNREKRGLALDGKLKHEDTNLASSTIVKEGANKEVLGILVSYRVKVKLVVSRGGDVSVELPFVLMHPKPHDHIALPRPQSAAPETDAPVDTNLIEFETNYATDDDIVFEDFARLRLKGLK
SmBiT-tagged truncated arrestin-3-(1–393) (P32120-2, form named): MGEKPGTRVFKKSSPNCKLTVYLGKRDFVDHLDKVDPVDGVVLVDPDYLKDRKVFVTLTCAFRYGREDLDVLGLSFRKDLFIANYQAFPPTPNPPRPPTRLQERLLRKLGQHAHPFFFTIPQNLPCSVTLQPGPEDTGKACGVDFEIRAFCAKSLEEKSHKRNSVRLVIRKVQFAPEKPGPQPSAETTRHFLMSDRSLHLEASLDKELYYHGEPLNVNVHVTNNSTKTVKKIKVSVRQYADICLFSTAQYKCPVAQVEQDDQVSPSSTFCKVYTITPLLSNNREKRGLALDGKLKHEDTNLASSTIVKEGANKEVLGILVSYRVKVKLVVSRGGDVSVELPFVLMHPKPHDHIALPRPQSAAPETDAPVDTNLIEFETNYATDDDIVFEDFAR

binding | Substance
binds | SmBiT-tagged arrestin-3 Tr393 + K295A (from UniProt P32120-2 1-393) (domain or fragment)
binds | SmBiT-tagged arrestin-3 Tr393 + K295E (from UniProt P32120-2 1-393) (domain or fragment)
binds | SmBiT-tagged arrestin-3 truncation mutant Tr389 (from UniProt P32120-2 1-389) (domain or fragment)
binds | SmBiT-tagged arrestin-3 truncation mutant Tr400 (from UniProt P32120-2 1-400) (domain or fragment)
binds | SmBiT-tagged truncated arrestin-3-(1–393) (from UniProt P32120-2 1-393) (domain or fragment)
